In the supplement of paper PMC11150407:
Hit rate of the full screen: of about 2,100 compounds, about 180 (8.6%) showed an effect of 50% or more. The list shows a part of the results.

What follows are compounds tested on MOLM1 and UCSD/AML1 (averaged) (assay: cell viability relative to DMSO control (POC); higher = less growth inhibition). Conditions: 1 µM; 72 h.
Procedure: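 Primary viability screen in the 3q26 EVI1-high AML cell lines MOLM1 and UCSD/AML1 (1.5e3 cells/well, 384-well), compounds at 1 uM for 72 h. ATP CellTiter-Glo read-out given as percent of viable cells over DMSO control (POC), averaged over duplicates. DMSO was the negative control and 5 uM etoposide the positive control. This mapping covers the MicroSource Spectrum and Selleck anticancer libraries (drug names).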

Row | SMILES | cell viability
1 | CC(=O)CC1CCCCN1 (centres undefined) | 102%
2 | CCN1C[C@]2(COC)[C@H](O)C[C@H](OC)[C@@]34[C@@H]5C[C@@]6(O)[C@H](OC(=O)c7ccccc7)[C@@H]5[C@@](OC(C)=O)([C@@H]([C@H](OC)[C@H]23)[C@@H]14)[C@@H](O)[C@@H]6OC | 100%
3 | CC[C@@]1(O)C[C@H](O[C@H]2C[C@H](N(C)C)[C@H](O)[C@H](C)O2)c2c(cc3c(c2O)C(=O)c2c(O)ccc(O)c2C3=O)[C@H]1C(=O)OC | 0.762%
4 | CC(=O)OC1CCC23C(=O)OC45CCC(C6=CC(=O)OC6)C4(C)CCC2C5CCC3(O)C1 (centres undefined) | 5.23%
5 | NC(=O)CN1CCCC1=O | 100%
6 | O=P1(NCCCl)OCCCN1CCCl (centres undefined) [Ifosfamide] | 105%
7 | O=P1(NCCCl)OCCCN1CCCl (centres undefined) | 105%
8 | C=C(C)[C@@H]1[C@H]2OC(=O)[C@@H]1[C@]1(O)C[C@H]3O[C@]34C(=O)O[C@H]2[C@]14C | 110%
9 | Oc1ccc(Cl)cc1 | 91.7%
10 | Cc1cccc(C)c1NC1=NCCCS1 | 100%
11 | CC(=O)OCC1=C(C(=O)O)N2C(=O)[C@@H](NC(=O)CCC[C@@H](N)C(=O)O)[C@H]2SC1 | 103%
12 | COc1c2c(cc3c1OCO3)CC[N+](C)=C2 | 102%
13 | NC(=O)C[S+]([O-])C(c1ccccc1)c1ccccc1 (centres undefined) | 97.7%
14 | C[C@@H](CO)NC(=O)[C@@H]1C=C2c3cccc4[nH]cc(c34)C[C@H]2N(C)C1 | 102%
15 | CN1CCN(C(=O)OC2c3nccnc3C(=O)N2c2ccc(Cl)cn2)CC1 (centres undefined) | 98.9%
16 | NCCc1c[nH]c2ccccc12 | 89.9%
17 | C[C@]12CC[C@H](O)C[C@H]1CC[C@@H]1[C@@H]2C[C@@H](O)[C@]2(C)[C@@H](C3=CC(=O)OC3)CC[C@]12O | 18.7%
18 | COc1ccc(C[C@H]2NC[C@H](O)[C@H]2OC(C)=O)cc1 | 3.59%
19 | CC1(C)N([O-])[N+](=O)C1(C)Br (centres undefined) | 109%
20 | COc1ccc2c(c1)[nH]c1c(C)nccc12 | 65.3%

Some of the entries so far, tab-delimited:
Row	SMILES	cell viability
1	CC(=O)CC1CCCCN1 (centres undefined)	102%
8	C=C(C)[C@@H]1[C@H]2OC(=O)[C@@H]1[C@]1(O)C[C@H]3O[C@]34C(=O)O[C@H]2[C@]14C	110%

Fetched one by one from above (2):
Row | SMILES | cell viability
19 | CC1(C)N([O-])[N+](=O)C1(C)Br (centres undefined) | 109%
7 | O=P1(NCCCl)OCCCN1CCCl (centres undefined) | 105%

Later entries:

Row | SMILES | cell viability
21 | O=C1c2ccccc2C(=O)c2ccccc21 | 92.8%
22 | C[C@@H]1CC[C@H]2[C@@H](C)C(=O)O[C@@H]3O[C@@]4(C)CC[C@@H]1[C@]32OO4 | 98.1%
23 | CC[C@H]1[C@@H]2C[C@H]3[C@@H]4N(C)c5ccccc5[C@]45C[C@@H]([C@@H]2[C@H]5O)N3[C@@H]1O | 109%
24 | CC(C)(C)C(=O)C(Oc1ccc(Cl)cc1)n1cncn1 (centres undefined) | 99.8%
25 | CC[C@H]1CN2CCc3cc(OC)c(OC)cc3[C@@H]2C[C@@H]1C[C@H]1NCCc2cc(OC)c(OC)cc21 | 90.6%
26 | CNC(C)C(O)c1ccccc1 (centres undefined) | 96.1%
27 | COc1cc([C@@H]2c3cc4c(cc3[C@H](O)[C@H]3COC(=O)[C@H]23)OCO4)cc(OC)c1OC | 6.17%
28 | CN(C)C(=S)SSC(=S)N(C)C | 1.29%
29 | CC(C)C[C@H](CN)CC(=O)O | 67.7%
30 | O=C1NC(=O)C(=O)C(=O)N1 | 100%
31 | CC(C)(C)NCC(O)c1ccccc1Cl (centres undefined) | 109%
32 | COc1cc2c(cc1-c1cc3cc4ccoc4cc3oc1=O)OCO2 | 99.4%
33 | O=C(O)CCC1NCC2CC1CN1CCCCC21 (centres undefined) | 93.6%
34 | C[N+]12CCC(CC1)C(OC(=O)C(O)(c1ccccc1)c1ccccc1)C2 (centres undefined) | 98.5%
35 | O=C1CCC[C@@H]2[C@H]3C[C@@H](CN12)[C@@H]1CCCCN1C3.[O-][Cl+3]([O-])([O-])O | 95.6%
36 | CC(CC(C(N)=O)(c1ccccc1)c1ccccc1)N(C)C (centres undefined) | 94.3%
37 | C[C@H]1C(=O)O[C@@H]2CCN3CC=C(COC(=O)[C@](C)(O)[C@]1(C)O)[C@H]23 | 103%
38 | O=C(O)COc1cc(Cl)c(Cl)cc1Cl | 98.7%
39 | CO[C@]12C[C@@H](COC(=O)c3cncc(Br)c3)CN(C)[C@@H]1Cc1cn(C)c3cccc2c13 | 98.1%
40 | CC[C@H]1CN2CC[C@H]1C[C@@H]2[C@@H](O)c1ccnc2ccc(OC)cc12 | 110%

Row | SMILES | cell viability
41 | CC(C)=CCCC1(C)C=Cc2c(O)c3c(c(CC=C(C)C)c2O1)OC12C(CC4CC1C(C)(C)OC2(C/C=C(/C)C(=O)O)C4O)C3=O (centres undefined) | 94.1%
42 | Cc1cc(O)ccc1Cl | 102%
43 | CC(=O)O[C@H]1C[C@@H](OC(C)=O)C(C)(C)C2C[C@@H](OC(C)=O)[C@]3(C)C(CC[C@@]4(C)[C@H](c5ccoc5)C(=O)[C@H]5O[C@]543)[C@]21C (some centres undefined) | 85.4%
44 | C=C(C)[C@H]1CN[C@H](C(=O)O)[C@H]1CC(=O)O | 96.1%
45 | C[C@@H]1CC[C@@]2(OC1)O[C@H]1[C@@H](O)[C@H]3[C@@H]4CC[C@H]5C[C@@H](O[C@@H]6O[C@H](CO)[C@H](O[C@@H]7O[C@H](CO)[C@@H](O)[C@H](O[C@@H]8OC[C@@H](O)[C@H](O)[C@H]8O)[C@H]7O[C@@H]7O[C@H](CO)[C@H](O)[C@H](O[C@@H]8O[C@H](CO)[C@@H](O)[C@H](O)[C@H]8O)[C@H]7O)[C@H](O)[C@H]6O)[C@H](O)C[C@]5(C)[C@H]4CC[C@]3(C)[C@H]1[C@@H]2C | 92.7%
46 | CN1[C@@H]2CC[C@H]1C[C@@H](OC(=O)[C@H](CO)c1ccccc1)C2 | 100%
47 | O=C1CN=C(c2ccccc2Cl)c2cc([N+](=O)[O-])ccc2N1 | 87%
48 | O=[N+]([O-])O[C@@H]1CO[C@H]2[C@@H]1OC[C@@H]2O | 98.1%
49 | OC1CCCCC1N1CCC(c2ccccc2)CC1 (centres undefined) | 107%
50 | N[C@@H](Cc1ccc(N(CCCl)CCCl)cc1)C(=O)O | 81.3%
51 | CC(C)=CCOc1c2occc2cc2ccc(=O)oc12 | 106%
52 | CC1=CC(=O)c2c(O)cccc2C1=O | 74.6%
53 | CC[C@@]1(O)C[C@H](O[C@H]2C[C@H](N(C)C)[C@H](O)[C@H](C)O2)c2c(cc3c(c2O)C(=O)c2c(O)cccc2C3=O)[C@H]1C(=O)OC | 38.5%
54 | COP(N)(=O)SC (centres undefined) | 111%
55 | C[C@H](N)[C@H](O)c1ccc(O)c(O)c1 | 105%
56 | C=CC[C@]1(O)CC[C@H]2[C@@H]3CCC4=CC(=O)CCC4=C3C=C[C@@]21C | 86.6%
57 | OC[C@@H]1CCCN2CCCC[C@H]12 | 83%
58 | C1CCc2nnnn2CC1 | 96%
59 | C/C(=C\c1csc(C)n1)[C@@H]1C[C@@H]2O[C@]2(C)CCC[C@H](C)[C@H](O)[C@@H](C)C(=O)C(C)(C)[C@@H](O)CC(=O)O1 [Epothilone B (EPO906)] | 13.4%
